In test [1] the target is T1, TGF-β-activated kinase 1 (TAK1) (mouse (endogenous in GA muscle)) (UniProt Q62073).
T1 sequence: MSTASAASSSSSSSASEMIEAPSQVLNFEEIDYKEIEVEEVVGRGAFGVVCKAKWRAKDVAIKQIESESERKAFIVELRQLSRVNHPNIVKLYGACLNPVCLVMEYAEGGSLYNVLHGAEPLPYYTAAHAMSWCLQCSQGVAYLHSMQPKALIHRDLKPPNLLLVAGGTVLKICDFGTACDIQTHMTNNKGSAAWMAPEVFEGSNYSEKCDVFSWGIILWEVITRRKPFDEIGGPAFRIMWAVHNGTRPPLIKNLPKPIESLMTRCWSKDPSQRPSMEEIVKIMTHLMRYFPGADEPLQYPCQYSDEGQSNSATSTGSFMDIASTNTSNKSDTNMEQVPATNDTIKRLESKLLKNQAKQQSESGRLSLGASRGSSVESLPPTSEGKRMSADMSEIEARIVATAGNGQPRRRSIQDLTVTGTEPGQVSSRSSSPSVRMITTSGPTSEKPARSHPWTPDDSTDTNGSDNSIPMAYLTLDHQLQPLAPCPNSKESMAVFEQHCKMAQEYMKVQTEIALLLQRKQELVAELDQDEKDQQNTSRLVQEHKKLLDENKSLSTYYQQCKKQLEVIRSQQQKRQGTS
The test is described as follows: co-IP; GA muscle extracts of sham-operated or 7d-denervated C57BL/6 mice; 700 µg protein extract incubated overnight at 4 °C with primary antibody against TAK1 or Smad1 in 700 µl lysis buffer free of DTT; collected on Protein A/G Sepharose beads; immunoblot. Background: In western blotting, separated proteins are transferred to a membrane and probed.

Amino acid sequences for entries named in this document (tags omitted).
UniProt P70340: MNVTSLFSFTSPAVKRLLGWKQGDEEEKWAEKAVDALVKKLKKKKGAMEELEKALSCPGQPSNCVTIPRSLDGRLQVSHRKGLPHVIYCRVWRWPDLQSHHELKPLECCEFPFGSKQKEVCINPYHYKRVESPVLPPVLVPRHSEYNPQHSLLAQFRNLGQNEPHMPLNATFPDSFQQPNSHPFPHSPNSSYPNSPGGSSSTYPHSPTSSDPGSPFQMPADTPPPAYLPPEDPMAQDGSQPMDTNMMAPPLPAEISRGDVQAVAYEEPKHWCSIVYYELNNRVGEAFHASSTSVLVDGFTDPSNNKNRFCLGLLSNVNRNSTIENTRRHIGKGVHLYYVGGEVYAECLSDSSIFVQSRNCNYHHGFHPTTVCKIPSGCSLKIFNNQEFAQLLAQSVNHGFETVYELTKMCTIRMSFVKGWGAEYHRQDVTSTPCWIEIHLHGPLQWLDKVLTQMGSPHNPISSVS
UniProt P97471: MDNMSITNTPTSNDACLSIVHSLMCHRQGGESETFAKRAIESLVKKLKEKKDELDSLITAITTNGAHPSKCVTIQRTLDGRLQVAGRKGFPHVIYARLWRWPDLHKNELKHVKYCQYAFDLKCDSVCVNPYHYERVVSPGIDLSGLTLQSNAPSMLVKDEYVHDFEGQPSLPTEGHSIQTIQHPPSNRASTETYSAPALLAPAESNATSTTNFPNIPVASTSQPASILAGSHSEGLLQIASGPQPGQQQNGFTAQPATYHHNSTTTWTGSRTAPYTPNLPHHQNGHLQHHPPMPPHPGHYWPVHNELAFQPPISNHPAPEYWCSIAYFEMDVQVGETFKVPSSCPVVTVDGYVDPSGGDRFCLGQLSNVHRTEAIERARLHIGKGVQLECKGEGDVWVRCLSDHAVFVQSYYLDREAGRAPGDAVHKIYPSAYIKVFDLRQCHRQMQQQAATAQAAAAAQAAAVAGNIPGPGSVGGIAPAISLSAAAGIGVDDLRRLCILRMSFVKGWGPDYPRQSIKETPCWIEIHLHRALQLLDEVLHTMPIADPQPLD

Test [2] deals with Smad1 (mouse (endogenous in GA muscle)) (UniProt P70340). The test is described as above.

No constants are given. Whether binding was seen depends on the method and setting. Binding seen in cells or lysates may run through a third protein. Some binding calls cover weakened binding; strength is not graded here.

For Smad1 (from UniProt P70340 1-465), the binding result in test [1] is given as “binds”.

Smad4 (from UniProt P97471 1-551): in test [1], the binding result is listed as “no binding”.

B1: TGF-β-activated kinase 1 (TAK1) (enzyme, UniProt Q62073 1-579)
chain: MSTASAASSSSSSSASEMIEAPSQVLNFEEIDYKEIEVEEVVGRGAFGVVCKAKWRAKDVAIKQIESESERKAFIVELRQLSRVNHPNIVKLYGACLNPVCLVMEYAEGGSLYNVLHGAEPLPYYTAAHAMSWCLQCSQGVAYLHSMQPKALIHRDLKPPNLLLVAGGTVLKICDFGTACDIQTHMTNNKGSAAWMAPEVFEGSNYSEKCDVFSWGIILWEVITRRKPFDEIGGPAFRIMWAVHNGTRPPLIKNLPKPIESLMTRCWSKDPSQRPSMEEIVKIMTHLMRYFPGADEPLQYPCQYSDEGQSNSATSTGSFMDIASTNTSNKSDTNMEQVPATNDTIKRLESKLLKNQAKQQSESGRLSLGASRGSSVESLPPTSEGKRMSADMSEIEARIVATAGNGQPRRRSIQDLTVTGTEPGQVSSRSSSPSVRMITTSGPTSEKPARSHPWTPDDSTDTNGSDNSIPMAYLTLDHQLQPLAPCPNSKESMAVFEQHCKMAQEYMKVQTEIALLLQRKQELVAELDQDEKDQQNTSRLVQEHKKLLDENKSLSTYYQQCKKQLEVIRSQQQKRQGTS
With B1, in test [2], the binding entry was “binds”.

(Values after publication PMC9033787.)
